Source: paper PMC13101372
No constants are given. Whether binding was seen depends on the method and setting. Some results given as binding are weak or reduced against the parent protein; the word gives no strength.

Target: T1, Glast multimers (endogenous murine Glast, multimeric form) (mouse (endogenous in primary astrocytes)), P56564
T1 chain: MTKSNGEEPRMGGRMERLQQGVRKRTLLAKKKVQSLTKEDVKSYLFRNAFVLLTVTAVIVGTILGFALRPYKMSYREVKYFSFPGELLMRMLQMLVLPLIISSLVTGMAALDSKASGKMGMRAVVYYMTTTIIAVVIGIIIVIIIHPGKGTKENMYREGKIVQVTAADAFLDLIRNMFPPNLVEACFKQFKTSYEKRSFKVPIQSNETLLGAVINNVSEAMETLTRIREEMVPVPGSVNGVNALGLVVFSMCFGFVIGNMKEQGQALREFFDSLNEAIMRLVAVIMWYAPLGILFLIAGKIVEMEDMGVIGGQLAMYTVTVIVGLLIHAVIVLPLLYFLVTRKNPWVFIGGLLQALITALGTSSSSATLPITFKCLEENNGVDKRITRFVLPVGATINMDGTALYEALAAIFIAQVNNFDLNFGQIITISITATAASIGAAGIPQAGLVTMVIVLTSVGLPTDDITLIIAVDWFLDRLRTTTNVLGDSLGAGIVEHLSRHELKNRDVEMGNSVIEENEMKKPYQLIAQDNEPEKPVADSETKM
Test: Western blot of lysates (multimer bands that resist solubilisation); anti-Glast Western blots of lysates from three independent primary astrocyte cultures
Settings: remark: other sources report otherwise

B1: Glast multimers (endogenous murine Glast, multimeric form), P56564 1-543 (complex)
chain: T1 chain
**Q.** How did the binding turn out when B1 was run?
**A.** binds
